Patent US20050059058A1
Results are given in words; binding and its absence hold for the method and conditions named. Some entries that bind do so weakly or less than the wild type.

By UniProt entry, the sequences of proteins in these tests, tags left out.
UniProt P0A9A6: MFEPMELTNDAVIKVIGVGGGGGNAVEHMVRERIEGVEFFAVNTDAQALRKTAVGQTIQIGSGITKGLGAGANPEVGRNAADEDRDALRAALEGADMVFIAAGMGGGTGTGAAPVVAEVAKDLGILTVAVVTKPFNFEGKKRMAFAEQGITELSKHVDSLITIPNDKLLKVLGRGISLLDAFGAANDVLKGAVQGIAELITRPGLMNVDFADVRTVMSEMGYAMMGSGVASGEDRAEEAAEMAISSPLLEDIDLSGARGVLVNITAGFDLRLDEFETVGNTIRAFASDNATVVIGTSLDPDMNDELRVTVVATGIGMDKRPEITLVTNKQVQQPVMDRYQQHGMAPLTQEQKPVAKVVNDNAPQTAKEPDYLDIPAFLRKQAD

Target: FtsZ protein (native, unlabelled) (Escherichia coli) (UniProt P0A9A6)
Test: assay not described

| binding | Substance |
| --- | --- |
| binds | HFTK-ZipA (from UniProt B1IX59 1-328) |
| binds | labelled derivative of ZipA in which a portion of the protein is fused to Green Fluorescent Protein (from UniProt B1IX59 1-328) |
